Measured values reported in paper PMC6049948.
Results are given in words; binding and its absence hold for the method and conditions named. In cells and extracts the contact can be indirect. Some binding calls cover weakened binding; strength is not graded here. Tags and fused reporters may be left off the sequences shown.

By UniProt entry, the sequences of proteins in these tests, tags left out.
UniProt Q6DH13: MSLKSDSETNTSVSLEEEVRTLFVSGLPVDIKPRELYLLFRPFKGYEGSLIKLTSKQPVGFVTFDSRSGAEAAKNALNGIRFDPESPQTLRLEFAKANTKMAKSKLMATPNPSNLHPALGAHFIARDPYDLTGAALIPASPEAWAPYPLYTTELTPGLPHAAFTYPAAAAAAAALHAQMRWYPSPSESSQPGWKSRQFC

Biological target: T1, GFP-Bucky ball (zebrafish) (UniProt H0WFA5)
T1 sequence: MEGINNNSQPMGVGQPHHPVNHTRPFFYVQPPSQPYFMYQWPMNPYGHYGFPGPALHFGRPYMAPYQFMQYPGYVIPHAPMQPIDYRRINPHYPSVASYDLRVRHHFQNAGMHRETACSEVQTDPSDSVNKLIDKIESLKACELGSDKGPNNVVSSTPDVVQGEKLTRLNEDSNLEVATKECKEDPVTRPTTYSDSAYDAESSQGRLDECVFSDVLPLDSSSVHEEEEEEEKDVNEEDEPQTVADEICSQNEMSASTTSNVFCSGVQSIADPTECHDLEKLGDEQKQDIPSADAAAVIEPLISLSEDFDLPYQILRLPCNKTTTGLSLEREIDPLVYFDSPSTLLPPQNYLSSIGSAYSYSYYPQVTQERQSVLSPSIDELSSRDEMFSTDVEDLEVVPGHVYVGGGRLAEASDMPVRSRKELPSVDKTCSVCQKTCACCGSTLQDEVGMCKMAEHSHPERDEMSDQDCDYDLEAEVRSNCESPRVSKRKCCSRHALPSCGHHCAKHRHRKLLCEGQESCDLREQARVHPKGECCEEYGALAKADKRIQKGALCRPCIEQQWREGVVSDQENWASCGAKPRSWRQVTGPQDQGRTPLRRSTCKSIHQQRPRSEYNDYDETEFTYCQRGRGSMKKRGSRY
Assay: co-IP; HEK293 cells co-transfected with pCS3-MT-Rbpms constructs and pCS3-GFP-Buc (or pCS3-GFP control); IP from the supernatant of cell lysates (including mRNA) with anti-GFP 3E6 antibody and Protein G magnetic beads; blotted with anti-Myc and anti-GFP

- binding: binds
Substance: Myc-tagged zebrafish Rbpms2a (from UniProt Q6DH13 1-199)
